Our source for the binding values is publication PMC12037035.

No constants are given. Whether binding was seen depends on the method and setting. Binding seen in cells or lysates may run through a third protein. Some results given as binding are weak or reduced against the parent protein; the word gives no strength. For some assays here: Tags and fused reporters may be left off the sequences shown.

The target in assay [1] is T1, CD70 with C-terminal triple repeat Strep II tag (full length, expressed in HEK293-E+ cells) (human) (UniProt P32970).
T1 sequence: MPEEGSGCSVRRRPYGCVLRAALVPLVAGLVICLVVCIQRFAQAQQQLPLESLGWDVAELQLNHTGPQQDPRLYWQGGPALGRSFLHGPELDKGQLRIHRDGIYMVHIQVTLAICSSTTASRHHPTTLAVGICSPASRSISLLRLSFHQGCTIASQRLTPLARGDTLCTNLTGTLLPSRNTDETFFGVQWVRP
Kind of assay: pull-down; CD70 (triple Strep II tag) and CD20-His6 coexpressed in HEK293-E+ cells (DNA ratio 1:5); lysis in 1% DDM, 50 mM K-PO4 pH 7.8, 200 mM KCl; CD70 held on Streptactin resin, eluted with 7 mM desthiobiotin, then Superose 6 gel filtration; western blot with anti-His and anti-Strep; 4 °C. (In general: Size exclusion chromatography separates by hydrodynamic size, large species first.)

In assay [2] the target is T2, CD20 (MS4A1), endogenous in BJAB B cells (human (endogenous in BJAB)) (UniProt P11836).
T2 sequence: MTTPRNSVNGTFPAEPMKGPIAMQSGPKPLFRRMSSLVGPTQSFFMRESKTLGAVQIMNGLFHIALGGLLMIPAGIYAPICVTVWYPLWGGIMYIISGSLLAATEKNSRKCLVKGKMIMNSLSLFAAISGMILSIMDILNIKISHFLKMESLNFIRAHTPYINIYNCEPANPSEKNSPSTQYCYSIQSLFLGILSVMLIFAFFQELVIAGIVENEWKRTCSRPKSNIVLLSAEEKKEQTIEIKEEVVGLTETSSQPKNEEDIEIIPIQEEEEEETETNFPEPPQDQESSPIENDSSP
In words: proximity ligation; in situ PLA (Duolink FarRed) on PFA-fixed BJAB cells with primary antibodies against CD20 and CD70; endogenous proteins.

B1: CD20-His (CD20 with C-terminal His6 tag, expressed in HEK293-E+ cells) (protein, UniProt P11836 1-297)
chain: T2 sequence
For the molecule B1, the binding entry in assay [1] is listed as “binds”.

B2: CD70, endogenous in BJAB B cells (protein, UniProt P32970 1-193)
chain: T1 sequence
Take B2: the binding entry in assay [2] was “binds”.
